The exact form of at least one protein or probe is not confirmed. At least one result comes from cells or an extract, where the contact may be indirect. For some of these results: Weaker means in comparison with the reference protein, sequence or condition of that experiment.
Key:
STAT1 + STAT2 + IRF9 [1] = test: EMSA; settings: 200 fmol probe, 1x LightShift binding buffer, 1 ug poly(dI:dC), 0.05% NP-40, 2.5% glycerol, 5 mM MgCl2, 20 min, extracts in 20 mM Hepes pH 7.9, 100 mM KCl, 0.5 mM EDTA, protein in a lysate after overexpression, label: 5' biotin
STAT1 + STAT2 + IRF9 [2] = test: EMSA supershift; settings: IFN-alpha2 60 min, supershifted by anti-STAT1 or anti-IRF9; 200 fmol probe, 1x LightShift binding buffer, 1 ug poly(dI:dC), 0.05% NP-40, 2.5% glycerol, 5 mM MgCl2, 20 min; extracts in 20 mM Hepes pH 7.9, 100 mM KCl, 0.5 mM EDTA; protein in a lysate after overexpression; label: 5' biotin

CTCGGGAAAGGGAAACCGAAACTGAAGCC (double strand) [ISG15 ISRE probe]
binding result (STAT1 + STAT2 + IRF9 [1]; plus nuclear lysate with myc-PLSCR2 CA mutant (4 Cys to Ala in palmitoylation motif), attenuated less than with WT): binds more weakly
binding result (STAT1 + STAT2 + IRF9 [1]; plus nuclear lysate with myc-PLSCR2 WT (mouse 1-307)): binds more weakly
binding result (STAT1 + STAT2 + IRF9 [1]; plus nuclear lysates with HA-STAT3 and myc-PLSCR2 WT, suppression augmented): binds more weakly
binding result (STAT1 + STAT2 + IRF9 [2]): binds
